Measurements taken from PubChem BioAssay AID2685 (National Center for Advancing Translational Sciences (NCATS), 2010).
Among all 320,000 compounds or so, about 2,100 (0.66%) were called active. Inconclusive means that the source gave no clear call. Such entries were picked first, then a sample of the others. Calls come from the whole dose curve; as a rule, active = well fitted inhibition curve with a large enough effect in the signal ratio, with a control signal flat (not every such curve was filed as active); inconclusive = small, poorly fitted or top-dose-only effect, or effect the other way, or a change in a side signal; inactive = flat fitted curve, though single readings scatter; the % refers to the signal ratio. Potencies beside an inconclusive call are fits to weak or partial responses and may not hold up.

Test: qHTS Assay for Lipid Storage Modulators in Drosophila S3 Cells
Details: BODIPY lipid droplet fluorescence, 18-24 h, cells fed with added oleic acid; lipid storage change, negative = inhibition: at 46.1 µM (top of the series) unless noted
Outline: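 Drosophila S3 cells got compounds at several concentrations plus oleic acid (400 uM solution). Laser-scanning cytometry with 488 nm excitation read lipid droplets at 500-530 nm and cells at 575-640 nm. Percent activity was relative to 20 uM Triacsin C.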
% is set by controls: 0 for no effect and ±100 for the full control effect; potency is the fitted concentration of half-maximal effect.

| Structure (SMILES) | lipid storage change, negative = inhibition | Potency |
| --- | --- | --- |
| CC(=O)Nc1ccc(S(=O)(=O)N(C)CC(=O)OCC(=O)NNC(=O)c2ccccc2F)cc1 | inconclusive: -16.6% | – |
| NC(=O)c1ccc[n+](CC(=O)c2cccc([N+](=O)[O-])c2)c1 | inconclusive: -36.3% | – |
| CCc1c(C(=O)Nc2ccc(C)c(C)c2)[nH]c(C)c1C(C)=O | inconclusive: 9.13% | – |
| Cc1ccc(N(CC(=O)NCCSc2nc3ccccc3s2)S(=O)(=O)c2ccccc2)c(C)c1 | – | inconclusive: 29.1 µM [falling, single point] |
| N#Cc1ccccc1CSc1nc2ccsc2c(=O)n1Cc1ccccn1 | inconclusive: 13.5% | – |
| COC(C(=O)NNS(=O)(=O)c1ccc([N+](=O)[O-])cc1)c1ccccc1 (stereo not given) | inconclusive: 73% | – |
| CCOC(=O)C1CCN(CCC(=O)Nc2ccc(C)c(C)c2)CC1 | inconclusive: 77.6% | – |
| O=C(c1cccs1)N1CCC(c2nc3c(nnn3Cc3cccc(Cl)c3)c(=O)[nH]2)CC1 | inactive | – |
| CCc1ccc(-c2nc(SCC(=O)NC3CC3)n[nH]2)cc1 | inconclusive: 33% | – |
| Cc1cccc(C(=O)NCC(=O)OCC(=O)c2ccc(Cl)s2)c1 | inconclusive: 57.9% | – |
| O=C(Cn1cnc2ccccc2c1=O)N(Cc1ccco1)c1ccc(O)cc1 | inconclusive: 16.6% | – |
| Cc1c(C(=O)N(C)CCC#N)oc2ccc(S(=O)(=O)N3CC(C)CC(C)C3)cc12 (stereo not given) | – | inconclusive: 4.61 µM [falling, single point] |
| CN(C)CCOC(=O)C(c1ccccc1)C1(O)CCCC1 (stereo not given) | inconclusive: -6.31% | – |
| COc1ccc(NC(=O)c2sc3nc(Cc4ccccc4)cc(C(F)(F)F)c3c2N)cc1OC | – | inconclusive: 0.146 µM [falling, full curve, poor fit] |
| Nc1nonc1-n1nnc(C(=O)N/N=C/c2ccc(OCc3cccc(Cl)c3)cc2)c1CN1CCCCC1 | – | inconclusive: 29.1 µM [falling, single point] |
| CC1CC1c1ccc(/C=C(\C#N)C(=O)Nc2ccccc2Cl)o1 (stereo not given) | inconclusive: 9.08% | – |
| O=C(C1CCCO1)N1CCN(C(=S)NC2CC2)CC1 (stereo not given) | inconclusive: -13.8% | – |
| COc1ccccc1N1CCN(S(=O)(=O)c2ccc(F)cc2)CC1 | inconclusive: 36.7% | – |
| CC(=O)Nc1ccc2nc(CN3CCC(CO)(CCc4ccccc4)CC3)ccc2c1 | inconclusive: -2.99% | – |
| CCOc1ccc(NC(=S)Nc2ccc(C)c([N+](=O)[O-])c2)cc1 | inconclusive: -0.602% | – |
| Cc1cc(C)c2nc(N3CCCC(C(=O)N4CCC(C(N)=O)CC4)C3)sc2c1 (stereo not given) | – | inconclusive: 23.1 µM [activator, single point] |
| CN1CCN(CC(=O)O)CC1 | inconclusive: 10.4% | – |
| CN(C)c1ccc(/C=C(/C#N)C(=O)NCc2ccccc2)o1 | – | inconclusive: 32.6 µM [falling, partial curve, poor fit] |
| N#C/C(=C/c1ccccc1)c1nn(CCO)c(N)c1C#N | – | inconclusive: 1.84 µM [rising, single point] |
| CCN1CCN(c2cc(C)c3cc(NC(=O)CCC(=O)N4CCN(c5ccccc5)CC4)ccc3n2)CC1 | – | inconclusive: 20.6 µM [activator, partial curve] |

As a short view, part of the list above.

| Structure (SMILES) | lipid storage change, negative = inhibition | Potency |
| --- | --- | --- |
| CC(=O)Nc1ccc(S(=O)(=O)N(C)CC(=O)OCC(=O)NNC(=O)c2ccccc2F)cc1 | inconclusive: -16.6% | – |
| NC(=O)c1ccc[n+](CC(=O)c2cccc([N+](=O)[O-])c2)c1 | inconclusive: -36.3% | – |
| CCc1c(C(=O)Nc2ccc(C)c(C)c2)[nH]c(C)c1C(C)=O | inconclusive: 9.13% | – |
| Cc1ccc(N(CC(=O)NCCSc2nc3ccccc3s2)S(=O)(=O)c2ccccc2)c(C)c1 | – | inconclusive: 29.1 µM [falling, single point] |
| N#Cc1ccccc1CSc1nc2ccsc2c(=O)n1Cc1ccccn1 | inconclusive: 13.5% | – |
| COC(C(=O)NNS(=O)(=O)c1ccc([N+](=O)[O-])cc1)c1ccccc1 (stereo not given) | inconclusive: 73% | – |
| CCOC(=O)C1CCN(CCC(=O)Nc2ccc(C)c(C)c2)CC1 | inconclusive: 77.6% | – |
| O=C(c1cccs1)N1CCC(c2nc3c(nnn3Cc3cccc(Cl)c3)c(=O)[nH]2)CC1 | inactive | – |
| CCc1ccc(-c2nc(SCC(=O)NC3CC3)n[nH]2)cc1 | inconclusive: 33% | – |
| Cc1cccc(C(=O)NCC(=O)OCC(=O)c2ccc(Cl)s2)c1 | inconclusive: 57.9% | – |
| O=C(Cn1cnc2ccccc2c1=O)N(Cc1ccco1)c1ccc(O)cc1 | inconclusive: 16.6% | – |
| Cc1c(C(=O)N(C)CCC#N)oc2ccc(S(=O)(=O)N3CC(C)CC(C)C3)cc12 (stereo not given) | – | inconclusive: 4.61 µM [falling, single point] |
| CN(C)CCOC(=O)C(c1ccccc1)C1(O)CCCC1 (stereo not given) | inconclusive: -6.31% | – |
| COc1ccc(NC(=O)c2sc3nc(Cc4ccccc4)cc(C(F)(F)F)c3c2N)cc1OC | – | inconclusive: 0.146 µM [falling, full curve, poor fit] |
| Nc1nonc1-n1nnc(C(=O)N/N=C/c2ccc(OCc3cccc(Cl)c3)cc2)c1CN1CCCCC1 | – | inconclusive: 29.1 µM [falling, single point] |
| CC1CC1c1ccc(/C=C(\C#N)C(=O)Nc2ccccc2Cl)o1 (stereo not given) | inconclusive: 9.08% | – |
| O=C(C1CCCO1)N1CCN(C(=S)NC2CC2)CC1 (stereo not given) | inconclusive: -13.8% | – |
| COc1ccccc1N1CCN(S(=O)(=O)c2ccc(F)cc2)CC1 | inconclusive: 36.7% | – |
| CC(=O)Nc1ccc2nc(CN3CCC(CO)(CCc4ccccc4)CC3)ccc2c1 | inconclusive: -2.99% | – |
| CCOc1ccc(NC(=S)Nc2ccc(C)c([N+](=O)[O-])c2)cc1 | inconclusive: -0.602% | – |

(more compounds)

| Structure (SMILES) | lipid storage change, negative = inhibition | Potency |
| --- | --- | --- |
| COc1ccccc1CNC(=O)C1CCCN(S(=O)(=O)c2ccc3c(c2)C(C)(C)C(=O)N3C)C1 (stereo not given) | – | inconclusive: 0.259 µM [rising, full curve] |
| CC(=O)c1cccc(NC(=O)c2c(-c3c(F)cccc3Cl)noc2C)c1 | inconclusive: -46.7% | – |
| COc1ccc(S(=O)(=O)N2CCC(C(=O)Nc3cccc(C(C)=O)c3)CC2)cc1C | – | inconclusive: 13 µM [activator, partial curve] |
| Cc1cccc(-c2nc3ccc(C(=O)NCCN4CCN(C)CC4)cc3nc2-c2cccc(C)c2)c1 | inconclusive: -64.8% | – |
| CC1=CC(C)C(C(=O)O)C(C(=O)Nc2cccnc2)C1 (stereo not given) | inconclusive: -13.7% | – |
| COc1ccccc1C(=O)Nc1cccc(C(=O)N2CCOCC2)c1 | – | inconclusive: 0.0326 µM [falling, full curve, poor fit] |
| CNc1ccc(OC)cc1-n1cnc(-c2ccc([N+](=O)[O-])cc2)c1 | inconclusive: -64% | – |
| O=C(COC(=O)c1cccs1)NCC1CCCCC1 | – | inconclusive: 2.91 µM [activator, single point] |
| CC(Sc1nc2c(c(=O)n(C)c(=O)n2C)n1Cc1cc2c(cc1Cl)OCO2)C(=O)O (stereo not given) | inconclusive: -4.38% | – |
| Cc1c(C(=O)OCC(=O)N2CCCC2)cccc1[N+](=O)[O-] | inconclusive: -14.7% | – |
| COC(=O)c1cc(S(=O)(=O)NCCc2sccc2C)c[nH]1 | – | inconclusive: 18.4 µM [falling, single point] |
| CC(Oc1cccc(Cl)c1)C(=O)Nc1ccccc1N1CCCCC1 (stereo not given) | inactive | – |
| CC(Sc1ncnc2sc(-c3ccccc3)cc12)C(=O)NCC1CCCO1 (stereo not given) | – | inconclusive: 20.6 µM [activator, single point] |
| O=S(=O)(Nc1ccc2nc(N3CCOCC3)sc2c1)c1ccccc1 | inconclusive: -63.6% | – |
| Cc1ccccc1NC(=O)C1C2CC/C=C\CCC21 (stereo not given) | inconclusive: 20.2% | – |
| CCn1c(C)c(C2=CCN(S(=O)(=O)c3ccc(C)cc3)CC2)c2ccccc21 | inconclusive: -28% | – |
| O=C(O)c1ccc2c(c1)C(=O)N(c1ccc(Cl)cn1)C2=O | inconclusive: -9.43% | – |
| O=C1c2cnc3nc(SCc4cccc(Cl)c4)nn3c2CC2c3ccccc3CCN12 (stereo not given) | inconclusive: 16.7% | – |
| O=C(Nc1ccc(F)cc1F)c1noc2c1CCC2 | inconclusive: 35.2% | – |
| Cc1ccccc1-n1nnnc1SCC(=O)NCC1(N2CCOCC2)CCCCC1 | – | inconclusive: 0.0046 µM [falling, full curve, poor fit] |
| O=C1CC(c2ccco2)CC(O)=C1C=Nc1ccccc1-c1ccccc1 (stereo not given) | inactive | – |
| Cc1ccc(SCc2nc(N)nc(Nc3ccccc3C)n2)c(C)c1 | – | inconclusive: 1.46 µM [activator, full curve, poor fit] |
| CC(=O)NCCC(=O)NCC1(N(C)Cc2ccccc2)Cc2ccccc2C1 | inconclusive: 15.4% | – |
| OC(CN1CCCC(C(F)(F)F)C1)c1ccccc1 (stereo not given) | inconclusive: -6.39% | – |
| COc1cccc(CNS(=O)(=O)c2c(C)nc3scc(C)n3c2=O)c1 | – | inconclusive: 29.1 µM [activator, single point] |

| Structure (SMILES) | lipid storage change, negative = inhibition | Potency |
| --- | --- | --- |
| CN(CC(=O)Nc1ccc(F)c(F)c1F)C(=O)c1cc(-c2ccncc2)nc2ccccc12 | inconclusive | – |
| N#Cc1c(NC(=O)CSCC(=O)O)sc2c1CCCC2 | – | inconclusive: 3.26 µM [falling, full curve] |
| N#Cc1cccc(S(=O)(=O)NCC(=O)OCC(=O)NCc2ccccc2)c1 | inconclusive: -1.66% | – |
| CSc1nncc(/C(C)=N/O)n1 | inconclusive: 9.08% | – |
| COc1ccc(N(CC(=O)Nc2cccc(N(C)S(C)(=O)=O)c2)S(=O)(=O)c2ccccc2)cc1Cl | – | inconclusive: 0.0065 µM [falling, full curve, poor fit] |
| Nc1nc(SCC(=O)N2CCCC2)[nH]c(=O)c1NC(=O)c1ccco1 | inconclusive: -5.87% | – |
| Cc1n(Cc2ccccc2)c2ccccc2[n+]1Cc1ccccc1 | – | inconclusive: 18.4 µM [falling, single point] |
| O=c1c2oc3ccccc3c2ncn1Cc1ccccc1F | inconclusive: -53.6% | – |
| COc1cccc(CN(C)C(=O)c2ccc3nccnc3c2)c1 | inconclusive: -17.7% | – |
| COc1ccc(OCC(=O)N/N=C(\C)c2ccc(-n3ccnc3)cc2)cc1 | – | inconclusive: 0.517 µM [activator, full curve, poor fit] |
| O=C(Cc1ccc([N+](=O)[O-])cc1)c1c(O)cc(O)cc1O | inconclusive: -0.514% | – |
| CC(=O)Nc1c(Cl)n(C(C)=O)c2ccccc12 | – | inconclusive: 20.6 µM [activator, single point] |
| Oc1ccccc1/C=N/Nc1ncc(Br)cn1 | inconclusive: -41.9% | – |
| CC(=O)O[C@H]1[C@H](C)OC=C[C@@H]1OC(C)=O | – | inconclusive: 0.651 µM [activator, full curve] |
| O=C(OCc1nc2ccc(Cl)cc2n1CCO)c1ccc(O)cc1 | – | inconclusive: 1.64 µM [activator, single point] |
| CCCOC(=O)CCc1n[nH]c(=O)[nH]c1=O | inconclusive: -10.3% | – |
| COc1ccc(C2N(c3cccc(Cl)c3)C(=O)C3CCCN32)cc1 (stereo not given) | inconclusive: 1.73% [at 9.22 µM] | – |
| CC1(C)CC(=O)c2cc(C(=O)Nn3cnnc3)c(=O)n(-c3ccccc3)c2C1 | – | inconclusive: 0.0046 µM [falling, full curve, poor fit] |
| COCCNC(=O)c1ccc(N2CCC3(CC2)OCCO3)c([N+](=O)[O-])c1 | inconclusive: 16.4% | – |
| CCOC(=O)c1nnn(-c2nonc2N)c1-c1ccc(F)cc1 | inconclusive: 9.03% | – |
| CCO[C@@H]1OC(C(=O)NCc2nc3ccccc3[nH]2)=C[C@H](c2ccccc2)[C@H]1CCCO | inconclusive: -55.3% | – |
| COC(=O)c1nc(N)sc1-c1ccc(Cl)c(Cl)c1 | inconclusive: 14.4% | – |
| COc1cc(NC(=O)Cn2nc(Cc3cccnc3)c3ccccc3c2=O)cc(OC)c1OC | – | inconclusive: 0.58 µM [activator, full curve] |
| Cc1ccc(NC(=O)CN(C)Cc2nc3c(Br)cc(Br)cc3c(=O)[nH]2)cc1 | inconclusive: 23.7% | – |
| COc1ccccc1NC(=O)CSc1nc(N)c(-c2ccccc2)c(=O)[nH]1 | inconclusive: -16.9% | – |
